Values quoted from earlier work as cited in patent publication US20210186950A1, “COMBINATIONS COMPRISING TROPIFEXOR AND CENICRIVIROC” (NOVARTIS AG, priority 2018, published 2021).
At least one compound was matched to its structure with a doubt left.

Test system: nonalcoholic steatohepatitis
Settings: nonalcoholic steatohepatitis patients; cited from earlier work

CC[C@H]1[C@@H](O)[C@@H]2[C@H](CC[C@]3(C)[C@@H]([C@H](C)CCC(=O)O)CC[C@@H]23)[C@@]2(C)CC[C@@H](O)C[C@@H]12 [OCA, obeticholic acid]
NAS (steatosis, inflammation, ballooning): significant improvement in NAS
